Experimental data published in article PMC11424930.
These are yes or no findings as the source states them, for the method shown. Binding seen in cells or lysates may run through a third protein. Binding can be weak; no strength is given. Where a sequence is shown, tags or fusion partners need not be part of it.

Sequences of proteins named here, by UniProt entry; tags and fusion partners are left off. A change or cut given only in a name is not applied to a line headed by its entry.
UniProt Q9UUE3: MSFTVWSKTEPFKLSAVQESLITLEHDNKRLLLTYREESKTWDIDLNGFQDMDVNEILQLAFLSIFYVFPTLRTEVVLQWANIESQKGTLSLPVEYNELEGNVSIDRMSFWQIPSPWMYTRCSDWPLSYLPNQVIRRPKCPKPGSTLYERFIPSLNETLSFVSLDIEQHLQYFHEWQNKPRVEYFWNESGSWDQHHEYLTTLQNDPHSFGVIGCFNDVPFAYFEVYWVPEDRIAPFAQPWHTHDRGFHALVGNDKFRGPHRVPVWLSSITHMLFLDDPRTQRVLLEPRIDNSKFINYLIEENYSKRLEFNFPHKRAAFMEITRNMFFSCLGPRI

Legend:
Assay in all cases: co-IP; TAP-tagged Sib3 or a derivative captured on IgG-Sepharose 6 Fast-Flow beads (2 h, 4°C) from whole-cell extracts of S. pombe sib2Δ sib3Δ cells co-expressing GFP-tagged Sib2 or a derivative; cells treated with the iron chelator Dip (250 μM; 90 min or 3 h as printed); lysis buffer 50 mM HEPES pH 7.5, 140 mM NaCl, 1% Triton X-100; washes with 500 mM NaCl and 250 mM LiCl; immunoblot with anti-GFP, anti-mouse IgG and anti-α-tubulin
[1] = target: Sib3-TAP (full-length wild-type N5-hydroxyornithine-N5-transacetylase Sib3, TAP-tagged) (S. pombe) (UniProt Q9UUE3)
Sib3E286A-TAP (S. pombe) = Sib3E286A-TAP (S. pombe) (UniProt Q9UUE3)
Sib3H248A-TAP (S. pombe) = Sib3H248A-TAP (S. pombe) (UniProt Q9UUE3)

Binder	binding [1]	binding (Sib3E286A-TAP (S. pombe))	binding (Sib3H248A-TAP (S. pombe))
Sib2-GFP (full-length ornithine-N5-oxygenase Sib2, GFP-tagged) (enzyme, UniProt Q9P7T0 1-431) MTEPLDLAIIGFGPASLSFLIALHDHSEEPLKNKKIRVFEKLPTFSWHEGMLIPGSNMQISFVKDLATPRDPTSYFTFLNYLHSHGQERLSGFLNMSTLEPSRYEYHDYLCWAASHFSKFVEYNANINKLHYDAATDLYIVGHGDTQWQAKNIIITTGCQPYIPPLYKSVDSPLIVHSSKFMSDHSQKLLRNSKHGILVVGCGQSAAEIWKHCHYSLDPKTPLAMCFRNLAPVPSDSSPFVNSLYFDSHNSHWWYNLPTEARLKGLSVGRTTNYSVVKESLLEEMFKECYLQKLRYGQEFHQIMGDTDIQSIKNEGDHLVVQLTSQMDKSKKPETRKIDVLYVATGYDHESFDVLMSSLFPNSQGAQISEEYCVLNAPSKQGKVYVAGITSNQHGIGETLLSWAAIRAGGLAKELFGPSKPTARVPASYLN	binds	binds	binds
149Sib2345-GFP (domain or fragment, UniProt Q9P7T0 149-345) MQAKNIIITTGCQPYIPPLYKSVDSPLIVHSSKFMSDHSQKLLRNSKHGILVVGCGQSAAEIWKHCHYSLDPKTPLAMCFRNLAPVPSDSSPFVNSLYFDSHNSHWWYNLPTEARLKGLSVGRTTNYSVVKESLLEEMFKECYLQKLRYGQEFHQIMGDTDIQSIKNEGDHLVVQLTSQMDKSKKPETRKIDVLYVAT	binds		
281Sib2358-GFP (domain or fragment, UniProt Q9P7T0 281-358) MLLEEMFKECYLQKLRYGQEFHQIMGDTDIQSIKNEGDHLVVQLTSQMDKSKKPETRKIDVLYVATGYDHESFDVLMSS	binds		
1Sib2349-GFP (domain or fragment, UniProt Q9P7T0 1-349) MTEPLDLAIIGFGPASLSFLIALHDHSEEPLKNKKIRVFEKLPTFSWHEGMLIPGSNMQISFVKDLATPRDPTSYFTFLNYLHSHGQERLSGFLNMSTLEPSRYEYHDYLCWAASHFSKFVEYNANINKLHYDAATDLYIVGHGDTQWQAKNIIITTGCQPYIPPLYKSVDSPLIVHSSKFMSDHSQKLLRNSKHGILVVGCGQSAAEIWKHCHYSLDPKTPLAMCFRNLAPVPSDSSPFVNSLYFDSHNSHWWYNLPTEARLKGLSVGRTTNYSVVKESLLEEMFKECYLQKLRYGQEFHQIMGDTDIQSIKNEGDHLVVQLTSQMDKSKKPETRKIDVLYVATGYDH	binds		
1Sib2279-GFP (domain or fragment, UniProt Q9P7T0 1-279) MTEPLDLAIIGFGPASLSFLIALHDHSEEPLKNKKIRVFEKLPTFSWHEGMLIPGSNMQISFVKDLATPRDPTSYFTFLNYLHSHGQERLSGFLNMSTLEPSRYEYHDYLCWAASHFSKFVEYNANINKLHYDAATDLYIVGHGDTQWQAKNIIITTGCQPYIPPLYKSVDSPLIVHSSKFMSDHSQKLLRNSKHGILVVGCGQSAAEIWKHCHYSLDPKTPLAMCFRNLAPVPSDSSPFVNSLYFDSHNSHWWYNLPTEARLKGLSVGRTTNYSVVKE	binds		
1Sib2135-GFP (domain or fragment, UniProt Q9P7T0 1-135) MTEPLDLAIIGFGPASLSFLIALHDHSEEPLKNKKIRVFEKLPTFSWHEGMLIPGSNMQISFVKDLATPRDPTSYFTFLNYLHSHGQERLSGFLNMSTLEPSRYEYHDYLCWAASHFSKFVEYNANINKLHYDAA	binds		
82Sib2431-GFP (domain or fragment, UniProt Q9P7T0 82-431) MLHSHGQERLSGFLNMSTLEPSRYEYHDYLCWAASHFSKFVEYNANINKLHYDAATDLYIVGHGDTQWQAKNIIITTGCQPYIPPLYKSVDSPLIVHSSKFMSDHSQKLLRNSKHGILVVGCGQSAAEIWKHCHYSLDPKTPLAMCFRNLAPVPSDSSPFVNSLYFDSHNSHWWYNLPTEARLKGLSVGRTTNYSVVKESLLEEMFKECYLQKLRYGQEFHQIMGDTDIQSIKNEGDHLVVQLTSQMDKSKKPETRKIDVLYVATGYDHESFDVLMSSLFPNSQGAQISEEYCVLNAPSKQGKVYVAGITSNQHGIGETLLSWAAIRAGGLAKELFGPSKPTARVPASYLN	binds		
174Sib2431-GFP (domain or fragment, UniProt Q9P7T0 174-431) MLIVHSSKFMSDHSQKLLRNSKHGILVVGCGQSAAEIWKHCHYSLDPKTPLAMCFRNLAPVPSDSSPFVNSLYFDSHNSHWWYNLPTEARLKGLSVGRTTNYSVVKESLLEEMFKECYLQKLRYGQEFHQIMGDTDIQSIKNEGDHLVVQLTSQMDKSKKPETRKIDVLYVATGYDHESFDVLMSSLFPNSQGAQISEEYCVLNAPSKQGKVYVAGITSNQHGIGETLLSWAAIRAGGLAKELFGPSKPTARVPASYLN	binds		
